Results published in patent US20040191240A1, “Composition and method for nerve regeneration” (priority 2003, published 2004).
Numbering of substitutions follows the chain as printed. Numbers in names are those of the source. These are yes or no findings as the source states them, for the method shown. For some of these results: In cells and extracts the contact can be indirect. Some results given as binding are weak or reduced against the parent protein; the word gives no strength. For some of these results: Where a sequence is shown, tags or fusion partners need not be part of it. Blank lines part the entries; values can stand above or below the binder they belong to.

Sequences of proteins named here, by UniProt entry; tags and fusion partners are left off. A change or cut given only in a name is not applied to a line headed by its entry.
UniProt P70336: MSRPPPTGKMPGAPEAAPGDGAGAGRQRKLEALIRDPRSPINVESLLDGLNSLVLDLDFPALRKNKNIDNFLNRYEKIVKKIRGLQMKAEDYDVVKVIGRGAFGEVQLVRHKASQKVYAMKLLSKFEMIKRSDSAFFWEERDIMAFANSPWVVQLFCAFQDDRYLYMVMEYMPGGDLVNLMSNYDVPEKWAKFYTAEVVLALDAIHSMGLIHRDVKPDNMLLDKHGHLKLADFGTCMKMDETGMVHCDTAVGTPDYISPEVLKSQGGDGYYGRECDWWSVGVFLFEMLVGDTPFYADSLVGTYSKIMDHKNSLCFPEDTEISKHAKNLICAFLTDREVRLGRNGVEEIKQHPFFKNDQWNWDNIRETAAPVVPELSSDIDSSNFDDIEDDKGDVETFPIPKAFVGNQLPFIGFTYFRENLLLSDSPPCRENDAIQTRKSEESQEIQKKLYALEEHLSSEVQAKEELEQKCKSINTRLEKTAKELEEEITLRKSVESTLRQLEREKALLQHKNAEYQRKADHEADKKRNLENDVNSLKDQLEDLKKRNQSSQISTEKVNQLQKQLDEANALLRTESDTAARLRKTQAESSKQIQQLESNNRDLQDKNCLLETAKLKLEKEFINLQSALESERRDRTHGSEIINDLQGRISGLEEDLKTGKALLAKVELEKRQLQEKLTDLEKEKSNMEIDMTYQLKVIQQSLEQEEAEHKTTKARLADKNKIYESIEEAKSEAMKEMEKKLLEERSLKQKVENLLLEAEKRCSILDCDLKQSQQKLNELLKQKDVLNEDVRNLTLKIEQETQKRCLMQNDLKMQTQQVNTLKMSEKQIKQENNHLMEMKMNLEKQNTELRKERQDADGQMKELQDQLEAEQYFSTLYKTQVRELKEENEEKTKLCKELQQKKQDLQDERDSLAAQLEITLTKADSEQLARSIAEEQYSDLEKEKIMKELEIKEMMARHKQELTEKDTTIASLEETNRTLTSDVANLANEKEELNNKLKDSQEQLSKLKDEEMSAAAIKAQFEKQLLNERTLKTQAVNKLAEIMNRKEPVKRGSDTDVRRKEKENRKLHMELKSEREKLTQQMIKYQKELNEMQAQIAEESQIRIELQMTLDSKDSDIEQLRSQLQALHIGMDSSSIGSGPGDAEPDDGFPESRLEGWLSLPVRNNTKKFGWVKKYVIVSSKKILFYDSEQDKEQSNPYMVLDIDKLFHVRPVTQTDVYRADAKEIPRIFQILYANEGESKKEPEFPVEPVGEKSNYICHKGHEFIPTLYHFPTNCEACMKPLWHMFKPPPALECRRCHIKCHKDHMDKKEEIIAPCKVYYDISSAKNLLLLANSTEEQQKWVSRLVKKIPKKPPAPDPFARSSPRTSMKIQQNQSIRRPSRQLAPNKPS

How the values were obtained:
[1] = biological target: endogenous Rho-kinase of differentiating N1E-115 cells (UniProt P70336); assay: co-immunoprecipitation of endogenous proteins (FIG. 17C)
[2] = biological target: endogenous Rho-kinase of differentiating N1E-115 cells (UniProt P70336); assay: co-immunoprecipitation of endogenous proteins from differentiating N1E-115 cells (DMSO)
[3] = biological target: endogenous p75 of mouse post-natal cerebellum / cerebellar neurons (mouse) (UniProt Q9Z0W1); assay: co-immunoprecipitation (FIG. 11C)
[4] = biological target: T1, GST-p75 ICD (rat) (UniProt P07174); assay: precipitation of GST-p75 ICD and its deletion mutants with recombinant Rho GDI; results for the single mutants not told
T1 sequence: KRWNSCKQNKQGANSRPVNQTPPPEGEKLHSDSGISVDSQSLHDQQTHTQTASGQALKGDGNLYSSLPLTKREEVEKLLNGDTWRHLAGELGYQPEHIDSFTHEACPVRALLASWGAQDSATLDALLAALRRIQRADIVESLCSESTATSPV

[5] = biological target: amino-terminally FLAG-tagged human p75 (human) (UniProt P08138); assay: co-immunoprecipitation from transfected 293T cells (FIG. 6A)
[6] = biological target: amino-terminally FLAG-tagged human p75 (human) (UniProt P08138); assay: co-immunoprecipitation with anti-FLAG antibody from 293T cells transfected with FLAG-p75 and HA-RhoA
[7] = biological target: amino-terminally FLAG-tagged human p75 (human) (UniProt P08138); assay: co-immunoprecipitation from N1E-115 cells transfected with FLAG-p75; interaction enhanced by Nogo peptide (4 uM) and MAG-Fc (25 ug/ml)

binding [1]: binds
binding [2]: binds
B1: endogenous p21 of differentiating N1E-115 cells (protein, UniProt P39689 2-159, looked up)
chain: SNPGDVRPVPHRSKVCRCLFGPVDSEQLRRDCDALMAGCLQEARERWNFDFVTETPLEGNFVWERVRSLGLPKVYLSPGSRSRDDLGGDKRPSTSSALLQGPAPEDHVALSLSCTLVSERPEDSPGGPGTSQGRKRRQTSLTDFYHSKRRLVFCKRKP

binding [3]: binds
B2: endogenous Nogo receptor of P9 cerebellum (receptor, UniProt Q99PI8 27-447, looked up)
chain: CPGACVCYNEPKVTTSCPQQGLQAVPTGIPASSQRIFLHGNRISHVPAASFQSCRNLTILWLHSNALARIDAAAFTGLTLLEQLDLSDNAQLHVVDPTTFHGLGHLHTLHLDRCGLRELGPGLFRGLAALQYLYLQDNNLQALPDNTFRDLGNLTHLFLHGNRIPSVPEHAFRGLHSLDRLLLHQNHVARVHPHAFRDLGRLMTLYLFANNLSMLPAEVLMPLRSLQYLRLNDNPWVCDCRARPLWAWLQKFRGSSSEVPCNLPQRLADRDLKRLAASDLEGCAVASGPFRPIQTSQLTDEELLSLPKCCQPDAADKASVLEPGRPASAGNALKGRVPPGDTPPGNGSGPRHINDSPFGTLPSSAEPPLTALRPGGSEPPGLPTTGPRRRPGCSRKNRTRSHCRLGQAGSGASGTGDAEGS

binding [4]: binds
B3: recombinant Rho GDI (from pGEX-GST-Rho GDI, GST moiety removed) (protein)
chain: MAEQEPTAEQLAQIAAENEEDEHSVNYKPPAQKSIQEIQELDKDDESLRKYKEALLGRVAVSADPNVPNVVVTGLTLVCSSAPGPLELDLTGDLESFKKQSFVLKEGVEYRIKISFRVNREIVSGMKYIQHTYRKGVKIDKTDYMVGSYGPRAEEYEFLTPVEEAPKGMLARGSYSIKSRFTDDDKTDHLSWEWNLTIKKDWKD

binding [5]: binds
binding [6]: binds
B4: endogenous Rho GDI of 293T cells (protein)
chain: AEQEPTAEQLAQIAAENEEDEHSVNYKPPAQKSIQEIQELDKDDESLRKYKEALLGRVAVSADPNVPNVVVTGLTLVCSSAPGPLELDLTGDLESFKKQSFVLKEGVEYRIKISFRVNREIVSGMKYIQHTYRKGVKIDKTDYMVGSYGPRAEEYEFLTPVEEAPKGMLARGSYSIKSRFTDDDKTDHLSWEWNLTIKKDWKD

binding [7]: binds
B5: endogenous Rho GDI of mouse cerebellar neurons and of N1E-115 cells (protein, UniProt Q99PT1 2-204, looked up)
chain: B4 chain with V70I, G73R, S80T, V161M, S175N, D200E
